Results on one molecule are retold here after patent WO2011080050A2 (dated 2011).

No constants are given. Whether binding was seen depends on the method and setting. Binding can be weak; no strength is given.

In experiment [1] the target is human CCL21 (human). As to the kind of experiment: dot blot (legend of Figure 14).
Experiment [2] addresses human CCL21 (human). Briefly: dot blot, huCCL21 native, heated, heated and reduced, or heated, reduced and SDS treated; anti-human IgG detection.

B1: MOR06935_g3-23_g3j (antibody, V domains shown)
VH: EVQLLESGGGLVQPGGSLRLSCAASGFTFNSYSMSWVRQAPGKGLEWVSAISMEGYSKSYADSVKGRFTISRDNSKNTLYLQMNSLRAEDTAVYYCARGYGYYFDVWGQGTLVTVSS
VL: SYELTQPLSVSVALGQTARITCGGDSIGSQYASWYQQKPGQAPVLVIYDDNERPSGIPERFSGSNSGNTATLTISRAQAGDEADYYCGSWDSNPTHVFGGGTKLTVLG
notes: also called QBP359; FW repaired germlined MOR06935
Take B1: the binding result in experiment [1] and in experiment [2] was “binds” each time.
